Source: publication PMC7099082
These are yes or no findings as the source states them, for the method shown. A result given as binding can be weak or reduced; the word gives no strength. Where a sequence is shown, tags or fusion partners need not be part of it.

Assays:
[1] = target: T1, SnRK1α2/AKIN11 (Snf1-Related Kinase1 α2 catalytic subunit), B42 activation domain fusion (Arabidopsis thaliana) (UniProt P92958); assay: two-hybrid; LexA system by mating; SnRK1 subunits fused to the B42 activation domain (EGY48), library clones fused to the LexA DNA binding domain (RFY206); LEU and LacZ reporters, two plates per reporter; primary screen and independent retest of high confidence interactions
T1 sequence: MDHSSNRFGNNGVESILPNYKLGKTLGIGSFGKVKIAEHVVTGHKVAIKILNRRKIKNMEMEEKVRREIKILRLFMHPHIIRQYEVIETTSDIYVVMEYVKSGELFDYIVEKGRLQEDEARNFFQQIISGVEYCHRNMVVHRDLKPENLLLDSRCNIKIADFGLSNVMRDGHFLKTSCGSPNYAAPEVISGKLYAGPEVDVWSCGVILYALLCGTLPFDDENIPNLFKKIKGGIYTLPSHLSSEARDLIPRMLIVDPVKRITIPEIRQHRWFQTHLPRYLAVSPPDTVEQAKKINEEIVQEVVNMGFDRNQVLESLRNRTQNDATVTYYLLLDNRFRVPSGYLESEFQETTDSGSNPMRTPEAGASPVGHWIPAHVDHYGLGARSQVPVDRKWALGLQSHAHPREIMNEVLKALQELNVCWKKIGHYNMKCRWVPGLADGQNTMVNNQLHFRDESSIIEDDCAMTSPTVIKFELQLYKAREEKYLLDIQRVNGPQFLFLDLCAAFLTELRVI

[2] = target: T2, SnRK1α1/AKIN10 (Snf1-Related Kinase1 α1 catalytic subunit), B42 activation domain fusion (Arabidopsis thaliana) (UniProt Q38997); assay: as above
T2 sequence: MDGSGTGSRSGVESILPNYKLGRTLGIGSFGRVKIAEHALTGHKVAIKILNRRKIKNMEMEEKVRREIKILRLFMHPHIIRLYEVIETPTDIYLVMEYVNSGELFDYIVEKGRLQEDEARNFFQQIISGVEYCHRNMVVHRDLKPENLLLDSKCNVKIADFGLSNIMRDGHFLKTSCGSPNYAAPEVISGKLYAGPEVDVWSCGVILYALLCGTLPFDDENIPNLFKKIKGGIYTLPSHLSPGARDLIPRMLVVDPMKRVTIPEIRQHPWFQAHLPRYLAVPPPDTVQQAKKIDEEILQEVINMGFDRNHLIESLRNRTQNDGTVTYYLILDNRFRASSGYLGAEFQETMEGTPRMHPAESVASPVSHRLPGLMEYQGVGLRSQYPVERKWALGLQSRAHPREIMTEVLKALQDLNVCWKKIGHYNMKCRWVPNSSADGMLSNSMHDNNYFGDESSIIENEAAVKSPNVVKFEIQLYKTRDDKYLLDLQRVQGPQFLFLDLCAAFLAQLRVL

Row | Substance | binding [1] | binding [2]
1 | DUF828/FORKED-LIKE7 (FL7), LexA DNA binding domain fusion (Arabidopsis thaliana) | binds | binds
2 | HB6, LexA DNA binding domain fusion (Arabidopsis thaliana) | binds | binds
3 | AIB1, LexA DNA binding domain fusion (Arabidopsis thaliana) | binds | binds
4 | DIG1/AITR2, LexA DNA binding domain fusion (Arabidopsis thaliana) | binds | binds
